Laboratory results as given in PMC7779543.
These are yes or no findings as the source states them, for the method shown. In cells and extracts the contact can be indirect. Some results given as binding are weak or reduced against the parent protein; the word gives no strength. Each block holds one molecule with its values, some of them ahead of it.

The chains behind the UniProt entries cited, without tags or fusion partners.
UniProt O14746: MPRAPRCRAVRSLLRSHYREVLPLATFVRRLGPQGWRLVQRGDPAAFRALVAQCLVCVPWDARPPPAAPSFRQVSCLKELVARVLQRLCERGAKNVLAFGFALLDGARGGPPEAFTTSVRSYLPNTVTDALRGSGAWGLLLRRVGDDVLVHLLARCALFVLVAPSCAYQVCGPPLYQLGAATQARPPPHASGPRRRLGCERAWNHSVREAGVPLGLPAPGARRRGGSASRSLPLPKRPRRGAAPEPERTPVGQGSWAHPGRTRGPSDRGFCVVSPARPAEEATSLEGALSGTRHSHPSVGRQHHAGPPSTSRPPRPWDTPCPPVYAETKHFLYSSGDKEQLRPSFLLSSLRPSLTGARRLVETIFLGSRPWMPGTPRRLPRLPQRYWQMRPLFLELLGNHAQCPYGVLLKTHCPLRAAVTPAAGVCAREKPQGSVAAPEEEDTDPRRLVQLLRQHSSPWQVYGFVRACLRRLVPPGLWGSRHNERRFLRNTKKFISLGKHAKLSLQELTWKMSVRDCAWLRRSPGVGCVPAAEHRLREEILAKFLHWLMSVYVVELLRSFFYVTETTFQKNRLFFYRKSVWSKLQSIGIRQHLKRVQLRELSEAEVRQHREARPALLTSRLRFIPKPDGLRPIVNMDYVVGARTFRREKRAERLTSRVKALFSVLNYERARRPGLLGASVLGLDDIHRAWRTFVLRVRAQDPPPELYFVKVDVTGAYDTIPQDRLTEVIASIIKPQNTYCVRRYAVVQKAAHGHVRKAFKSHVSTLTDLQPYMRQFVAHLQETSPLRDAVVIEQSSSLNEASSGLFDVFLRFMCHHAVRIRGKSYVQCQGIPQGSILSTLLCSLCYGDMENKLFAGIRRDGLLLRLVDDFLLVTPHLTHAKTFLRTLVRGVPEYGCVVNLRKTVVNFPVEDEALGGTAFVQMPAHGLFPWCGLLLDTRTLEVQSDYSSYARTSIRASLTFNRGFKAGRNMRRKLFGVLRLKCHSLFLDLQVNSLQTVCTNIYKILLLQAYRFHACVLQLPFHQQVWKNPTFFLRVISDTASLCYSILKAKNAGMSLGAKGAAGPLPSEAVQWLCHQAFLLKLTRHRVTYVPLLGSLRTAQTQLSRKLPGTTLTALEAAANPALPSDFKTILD
UniProt Q9Y265: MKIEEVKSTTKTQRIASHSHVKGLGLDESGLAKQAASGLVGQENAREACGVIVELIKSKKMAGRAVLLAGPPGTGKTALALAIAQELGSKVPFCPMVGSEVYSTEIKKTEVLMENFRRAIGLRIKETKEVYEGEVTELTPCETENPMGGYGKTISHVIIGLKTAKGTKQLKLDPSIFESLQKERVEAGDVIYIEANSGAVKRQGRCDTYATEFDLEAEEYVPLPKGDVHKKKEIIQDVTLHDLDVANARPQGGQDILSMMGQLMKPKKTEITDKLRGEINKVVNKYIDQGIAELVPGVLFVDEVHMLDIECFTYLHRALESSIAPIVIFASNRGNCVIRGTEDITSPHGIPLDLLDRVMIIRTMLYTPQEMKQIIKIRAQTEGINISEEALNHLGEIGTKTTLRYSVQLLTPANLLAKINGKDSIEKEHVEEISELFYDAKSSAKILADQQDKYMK
UniProt Q9BUR4: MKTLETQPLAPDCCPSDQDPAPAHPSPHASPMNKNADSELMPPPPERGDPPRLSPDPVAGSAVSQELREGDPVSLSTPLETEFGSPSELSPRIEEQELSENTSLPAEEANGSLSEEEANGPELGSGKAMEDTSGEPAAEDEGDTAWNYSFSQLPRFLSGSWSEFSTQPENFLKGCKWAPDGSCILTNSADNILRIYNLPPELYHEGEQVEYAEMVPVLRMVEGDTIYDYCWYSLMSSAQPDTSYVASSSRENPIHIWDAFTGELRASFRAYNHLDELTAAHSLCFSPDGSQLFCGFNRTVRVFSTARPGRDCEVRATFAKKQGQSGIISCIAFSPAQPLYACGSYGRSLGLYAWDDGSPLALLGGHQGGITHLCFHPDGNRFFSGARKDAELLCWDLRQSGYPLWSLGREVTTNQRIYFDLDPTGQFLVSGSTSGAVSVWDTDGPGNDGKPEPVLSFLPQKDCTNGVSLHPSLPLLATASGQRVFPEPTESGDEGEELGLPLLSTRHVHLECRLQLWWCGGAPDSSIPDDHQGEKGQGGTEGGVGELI

Target: telomerase reverse transcriptase (TERT) (human (endogenous in hLCSCs from Huh7)) (UniProt O14746)
Experiment: co-IP; co-immunoprecipitation with anti-TERT from rLV-Tet-on-CircMEG3-hLCSCs treated with DOX (0, 0.5, 1, 1.5, 2 ug/mL); IgG co-immunoprecipitation as negative control

- binding: binds
Molecule: Pontin (from UniProt Q9Y265 1-456)

- binding: binds
Molecule: TCAB1 (from UniProt Q9BUR4 1-548)

- binding: binds
B1: Cbf5, a component of telomere synthase H/ACA ribonucleoprotein (RNP) (protein, UniProt O60832 1-514)
chain: MADAEVIILPKKHKKKKERKSLPEEDVAEIQHAEEFLIKPESKVAKLDTSQWPLLLKNFDKLNVRTTHYTPLACGSNPLKREIGDYIRTGFINLDKPSNPSSHEVVAWIRRILRVEKTGHSGTLDPKVTGCLIVCIERATRLVKSQQSAGKEYVGIVRLHNAIEGGTQLSRALETLTGALFQRPPLIAAVKRQLRVRTIYESKMIEYDPERRLGIFWVSCEAGTYIRTLCVHLGLLLGVGGQMQELRRVRSGVMSEKDHMVTMHDVLDAQWLYDNHKDESYLRRVVYPLEKLLTSHKRLVMKDSAVNAICYGAKIMLPGVLRYEDGIEVNQEIVVITTKGEAICMAIALMTTAVISTCDHGIVAKIKRVIMERDTYPRKWGLGPKASQKKLMIKQGLLDKHGKPTDSTPATWKQEYVDYSESAKKEVVAEVVKAPQVVAEAAKTAKRKRESESESDETPPAAPQLIKKEKKKSKKDKKAKAGLESGAEPGDGDSDTTKKKKKKKKAKEVELVSE
